Source: the supplement of paper PMC6445147
This is a noisy data set.

B1: human tRNA-Pro; a variant is named by its letters at N, in order (parent)
chain: GGCTCGTTGGTCTAGNGGTATGATTCTCGCTTAGGGTGCGAGAGGTCCCGGGTTCNNATCCCGGACGAGCCC

Variants of: B1
Test: tRNA 5' processing efficiency (processed reads / all reads, maximum-likelihood estimate) (fraction); higher = more efficient 5' processing
Settings: HEK293T; construct: CMV Pol-II promoter ((+)CMV library, decapped)

Variant | tRNA 5' processing efficiency
GGCTCGTTGGTCTAGAGGTATGATTCTCGCTTAGGGTGCGAGAGGTCCCGGGATCCTAACCCGGACGAGCCC | 0.14
GGCTCGTTCGTCTAGGGGAATGATTCTCGCTTAGGGTGCGAGAGGTCCCGGGTTCCAACCCCGGACGAGCCC | 0.33
GGCTCGTTGGTCTCGGGTTCTGATTCTCGCTTAGGGTGCGAGAGGTCCCGGGTTAGAATCCCGGACGAGCCC | 0.17
GGCTCGTTGGTCTAGGGGTATGATTCTCGCTTAGGGTGCGAGAGGTCCCGGGTAGATTTCCCGGACGAGCCC | 0.25
GGCTCGTTGGTCTACGGATGTGATTCTCGCTTAGGGTGCGAGAGGTCCCGGGATCCAATCCCGGACGAGCCC | 0.25
GGCTCGTTCGTCTAGGGGAATGATTCTCGCTTAGGGTGCGAGAGGTCCCGGGTTACAATCCCGGACGAGCCC | 0.33
GGCTCGTTGGTCTAGGCATATGATTCTCGCTTAGGGTGCGAGAGGTCCCGGGTTGCAATCCCGGACGAGCCC | 0.33
GGCTCGTTGGTCTGGCGTTATGATTCTCGCTTAGGGTGCGAGAGGTCCCGGGTTTGAATCCCGGACGAGCCC | 0.33
GGCTCGTTGGTCTGGAGGTATGATTCTCGCTTAGGGTGCGAGAGGTCCCGGGTTCGAATCCCGGACGAGCCC | 0.2
GGCTCGTTGGTCTAGGCGTATGATTCTCGCTTAGGGTGCGAGAGGTCCCGGGTTGCAATCCCGGACGAGCCC | 0.25
GGCTCGTTGGTCTGGGGGCTTGATTCTCGCTTAGGGTGCGAGAGGTCCCGGGTTCGAATCCCGGACGAGCCC | 0.17
GGCTCGTTGGTCTTGGGGTTTGATTCTCGCTTAGGGTGCGAGAGGTCCCGGGTTCCAATCCCGGACGAGCCC | 0.18
GGCTCGTTGGTCTGGGGGTATGATTCTCGCTTAGGGTGCGAGAGGTCCCGGGTCCCAGTCCCGGACGAGCCC | 0.14
GGCTCGTTGGTCTAGGGGTATGATTCTCGCTTAGGGTGCGAGAGGTCCCGGGTGCCAATCCCGGACGAGCCC | 0.25
GGCTCGTTGGTCTCGGGGTATGATTCTCGCTTAGGGTGCGAGAGGTCCCGGGTGCCAGTCCCGGACGAGCCC | 0.25
GGCTCGTGGGTCTATGGGTATGATTCTCGCTTAGGGTGCGAGAGGTCCCGGGTTGATATCCCGGACGAGCCC | 0.2
GGCTCGTAGGTCTATGGGTATGATTCTCGCTTAGGGTGCGAGAGGTCCCGGGTGCCATTCCCGGACGAGCCC | 0.17
GGCTCGTTGGTCTGAGGGTATGATTCTCGCTTAGGGTGCGAGAGGTCCCGGGTTCCAATCCCGGACGAGCCC | 0.17
GGCTCGTTCGTCTAAGGGTATGATTCTCGCTTAGGGTGCGAGAGGTCCCGGGTTCCAATCCCGGACGAGCCC | 0.25

Variant | tRNA 5' processing efficiency
GGCTCGTTGGTCTAGGGGTATGATTCTCGCTTAGGGTGCGAGAGGTCCCGGGTTTCAAACCCGGACGAGCCC | 0.25
GGCTCGTGGGTCTAGGGGTATGATTCTCGCTTAGGGTGCGAGAGGTCCCGGGACCATATCCCGGACGAGCCC | 0.33
GGCTCGTTGGTCTAGGGGTATGATTCTCGCTTAGGGTGCGGGAGGTCCCGGGTTCCAATCCCGGACGAGCCC | 0.25
GGCTCGTAGGTCTAGAGATATGATTCTCGCTTAGGGTGCGAGAGGTCCCGGGATCCAATCCCGGACGAGCCC | 0.2
GGCTCGTTGGTCTTGGGTTATGATTCTCGCTTAGGGTGCGAGAGGTCCCGGGCTCGAAACCCGGACGAGCCC | 0.4
GGCTCGTTGGTCTCGGGGAATGATTCTCGCTTAGGGTGCGAGAGGTCCCGGGTTAGAGCCCCGGACGAGCCC | 0.25
GGCTCGTGGGTCTAGACGTATGATTCTCGCTTAGGGTGCGAGAGGTCCCGGGATCATATCCCGGACGAGCCC | 0.25
GGCTCGTTGGTCTGGGGATATGATTCTCGCTTAGGGTGCGAGAGGTCCCGGGTGTCAATCCCGGACGAGCCC | 0.2
GGCTCGTTTGTCTATAGGCATGATTCTCGCTTAGGGTGCGAGAGGTCCCGGGTTCCATTCCCGGACGAGCCC | 0.14
GGCTCGTTGGTCTAGGGATATGATTCTCGCTTAGGGTGCGAGAGGTCCCGGGTTCCACTCCCGGACGAGCCC | 0.25
GGCTCGTTGGTCTGGTGAAATGATTCTCGCTTAGGGTGCGAGAGGTCCCGGGTTCGAATCCCGGACGAGCCC | 0.33
GGCTCGTTGGTCTAGAGGTCTGATTCTCGCTTAGGGTGCGAGAGGTCCCGGGTTCGAATCCCGGACGAGCCC | 0.17
GGCTCGTAGGTCTGGGGGTATGATTCTCGCTTAGGGTGCGAGAGGTCCCGGGATCCAATCCCGGACGAGCCC | 0.33
GGCTCGTTGGTCTAGGCGTATGATTCTCGCTTAGGGTGCGAGAGGTCCCGGGTTCCAAACCCGGACGAGCCC | 0.17
GGCTCGTTGGTCTAGGGGTCTGATTCTCGCTTAGGGTGCGAGAGGTCCCGGGTTGGAATCCCGGACGAGCCC | 0.2
GGCTCGTTAGTCTGCATGTTTGATTCTCGCTTAGGGTGCGAGAGGTCCCGGGTTGCAATCCCGGACGAGCCC | 0.08
GGCTCGTAGGTCTCGGCGTATGATTCTCGCTTAGGGTGCGAGAGGTCCCGGGTTCCAGTCCCGGACGAGCCC | 0.2
GGCTCGTTGGTCTCGGGCCGTGATTCTCGCTTAGGGTGCGAGAGGTCCCGGGTTTCAATCCCGGACGAGCCC | 0.33

Retrieved one by one from the entries so far (2):
Variant | tRNA 5' processing efficiency
GGCTCGTGGGTCTAGGGGTATGATTCTCGCTTAGGGTGCGAGAGGTCCCGGGACCATATCCCGGACGAGCCC | 0.33
GGCTCGTAGGTCTAGAGATATGATTCTCGCTTAGGGTGCGAGAGGTCCCGGGATCCAATCCCGGACGAGCCC | 0.2
